Results are given in words; binding and its absence hold for the method and conditions named. A result given as binding can be weak or reduced; the word gives no strength.
Tests used:
[1] = target: T1, anti-Müllerian hormone growth factor (AMH GF), the mature C-terminal domain (human) (UniProt P03971); experiment: ELISA; c-AMH captured on mAb-C1, incubated with AMHR2-Fc/Fc (33 nM) or buffer for 2 h; prodomain detected with biotinylated mAb-N1; both purified
T1 sequence: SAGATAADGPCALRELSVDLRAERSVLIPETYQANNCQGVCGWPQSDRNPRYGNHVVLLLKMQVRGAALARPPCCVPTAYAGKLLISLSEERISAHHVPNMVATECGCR

[2] = target: T1, anti-Müllerian hormone growth factor (AMH GF), the mature C-terminal domain (human); experiment: ELISA; c-AMH captured on anti-N-terminal mAb-N2; bound c-AMH detected with biotinylated mAb-N1 (prodomain) or mAb-C1 (GF); both purified
[3] = target: T1, anti-Müllerian hormone growth factor (AMH GF), the mature C-terminal domain (human); experiment: ELISA; AMHR2-Fc/Fc (0.75 ug/ml) captured on goat antihuman Fc Ab coated on the plate; c-AMH or GF serially diluted, 2 to 4 h; bound AMH detected with biotinylated mAb-C1 (GF) or mAb-N1 (prodomain) and SA-HRP; data fit to the quadratic equation for a reversible association reaction; both purified

Measured: binding

anti-Müllerian hormone prodomain (N-terminal prodomain of c-AMH) (human) (domain or fragment)
binds: all assays above
